# Assay results

From PubChem BioAssay record AID912 (NCATS, 2007).

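Uptake of anthrax lethal toxin into cultured cells, read by FRET (460/530 nm ratio) and reported from the 460 nm channel; the cell line is not named here.
Each compound was tested as a concentration series from about 0.0005 to 40 µM.
The number is the fitted AC50 of the 460 nm signal alone; lower values mean a more potent effect. A falling signal goes with compounds filed as inhibitors or cytotoxic, a rising one with activators or fluorescent compounds (inferred from the filed classes).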

Values are in µM.
Common to all entries: measured here: 460 nm channel.
This is a side read-out of the assay, for part of the compounds, not drawn at random.
A potency from a partial, single-point or poor curve is only a rough figure.
The first word of each remark tells which way the curve ran; it can be opposite to the aim of the assay.

Result for O=C(CCCN1CCC2(CC1)C(=O)N(CCc1ccc(N=C=S)cc1)CN2c1ccccc1)c1ccc(F)cc1 was AC50 15.85 µM (falling, partial curve). O=C(Oc1ccc(N(Cc2cccs2)C2=NS(=O)(=O)c3ccccc32)cc1)c1ccco1 gave AC50 0.1 µM (rising, partial curve). Result for CCOC(=O)CSc1nnc(-c2ccncc2)o1 was AC50 3.162 µM (rising, partial curve). For CCCCC[C@H](O)c1cccc(OCc2ccc3ccccc3n2)c1 the result was AC50 25.12 µM (falling, partial curve, poor fit).

For COc1cc2c(O)c3c(c(-c4ccc5c(c4)OCO5)c2cc1OC)C(=O)OC3 the result was AC50 0.02512 µM (falling, full curve). Cc1ccccc1OCCCCc1c(C)n[nH]c1C gave AC50 12.59 µM (falling, partial curve). For Cc1c2ccncc2c(C)c2c1[nH]c1ccccc12 the result was AC50 10 µM (falling, full curve). Result for C[C@]12Cc3cn4c(nc3C=C1CC[C@H]1[C@@H]2CC[C@@]2(C)[C@H]1CC[C@@]2(O)C#N)nc1ccccc14 was AC50 25.12 µM (falling, single point).

Result for COCCn1c(SCC(=O)N2CCCCC2)nc2cccnc21 was AC50 5.012 µM (rising, partial curve). CO[C@@]12C[C@@H](COC(=O)c3cncc(Br)c3)CN(C)[C@H]1Cc1cn(C)c3cccc2c13 read AC50 0.003981 µM (rising, full curve, poor fit). O=C(CSc1ncnc2ccccc12)Nc1ccc(N2CCOCC2)cc1 gave AC50 5.012 µM (rising, single point). With CN1C(=O)Cc2cc(S(=O)(=O)N3CCOCC3)ccc21 the assay gave AC50 12.59 µM (rising, partial curve).

Result for Cc1cc(Cl)ccc1OCC(=O)Nc1ccccc1N1CCOCC1 was AC50 10 µM (falling, partial curve). Result for COc1ccccc1N1CCN(C(=O)CSc2ccc3c(C)cc(C)nc3n2)CC1 was AC50 0.7943 µM (falling, full curve, poor fit). With OC(COc1ccc2cc(Br)ccc2c1)CN1CCN(c2ccccn2)CC1 (stereo not given) the assay gave AC50 2.512 µM (falling, single point). With O=C(Cn1cnc2c(nnn2-c2ccccc2)c1=O)N1CCC(Cc2ccccc2)CC1 the assay gave AC50 6.31 µM (falling, full curve).

For N#CCCn1c(=O)c(-c2ccccc2)nc2cnc(Oc3cccc(Cl)c3)nc21 the result was AC50 7.943 µM (rising, partial curve). For Cc1ccc(CNS(=O)(=O)c2ccc3oc(C(=O)O)c(C)c3c2)cc1 the result was AC50 0.1995 µM (falling, partial curve). Result for COc1ccc(CCNC(=O)c2cc3c(=O)n4cccc(C)c4nc3n(Cc3ccncc3)c2=N)cc1 was AC50 6.31 µM (rising, partial curve). With CCOc1nc(-c2ccc(OC)cc2)ccc1-c1noc(-c2cc(OC)c(OC)c(OC)c2)n1 the assay gave AC50 0.01259 µM (rising, full curve).

O=C(/C=C\c1ccc(O)c(O)c1)O[C@@H](Cc1ccc(O)c(O)c1)C(=O)O gave AC50 1 µM (falling, full curve).